Test results taken from publication PMC7383964 (Chemmedchem, 2020).
Results are given in words; binding and its absence hold for the method and conditions named. Binding seen in cells or lysates may run through a third protein. Some entries that bind do so weakly or less than the wild type.

Chains of the proteins cited; added tags and fusions are not shown.
UniProt P35372: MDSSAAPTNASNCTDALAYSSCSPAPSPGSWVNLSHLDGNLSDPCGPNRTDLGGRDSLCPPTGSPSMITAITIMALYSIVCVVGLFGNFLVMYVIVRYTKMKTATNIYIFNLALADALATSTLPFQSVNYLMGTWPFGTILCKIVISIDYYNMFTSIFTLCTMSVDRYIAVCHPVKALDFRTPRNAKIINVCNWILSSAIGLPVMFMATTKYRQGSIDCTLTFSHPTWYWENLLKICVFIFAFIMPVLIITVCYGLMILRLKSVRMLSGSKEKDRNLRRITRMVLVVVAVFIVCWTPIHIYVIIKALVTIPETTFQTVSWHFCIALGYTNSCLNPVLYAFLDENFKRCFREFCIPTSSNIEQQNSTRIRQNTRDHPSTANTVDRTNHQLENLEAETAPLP
UniProt P32121: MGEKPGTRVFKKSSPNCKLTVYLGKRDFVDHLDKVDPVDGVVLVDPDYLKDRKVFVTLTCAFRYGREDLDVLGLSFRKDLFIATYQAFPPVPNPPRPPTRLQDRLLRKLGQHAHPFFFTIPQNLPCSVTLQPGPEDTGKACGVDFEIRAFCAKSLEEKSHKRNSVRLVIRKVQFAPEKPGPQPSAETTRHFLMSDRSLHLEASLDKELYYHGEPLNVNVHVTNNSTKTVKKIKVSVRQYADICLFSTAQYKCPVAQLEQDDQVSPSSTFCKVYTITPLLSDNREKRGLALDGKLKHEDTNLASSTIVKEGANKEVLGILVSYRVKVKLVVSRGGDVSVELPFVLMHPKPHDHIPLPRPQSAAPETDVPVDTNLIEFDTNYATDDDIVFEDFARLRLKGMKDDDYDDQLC

Molecular target: ProLink-tagged μ-OR-PK1 (μ-opioid receptor) (human) (UniProt P35372)
Assay: split reporter; PathHunter luminescence-based enzyme complementation in HEK-293 cells (EA-tagged β-arrestin-2 stable, ProLink-tagged μ-OR-PK1 and GRK2 1:1 transient); stimulation with the reference agonist DAMGO (1 μM in antagonist mode), 90 min at 37 °C; compounds 9 b and 16 b preincubated 30 min

binding: binds
Substance: enzyme acceptor (EA)-tagged β-arrestin-2 fusion protein (from UniProt P32121 1-409)
